Laboratory results published in the supplement of paper PMC6411743.
± gives the standard deviation of the averaged measurements. The list shows a part of the results.

Amino acid sequences for entries named in this document (tags omitted). A change or cut given only in a name is not applied to a line headed by its entry.
UniProt P06733, whole entry: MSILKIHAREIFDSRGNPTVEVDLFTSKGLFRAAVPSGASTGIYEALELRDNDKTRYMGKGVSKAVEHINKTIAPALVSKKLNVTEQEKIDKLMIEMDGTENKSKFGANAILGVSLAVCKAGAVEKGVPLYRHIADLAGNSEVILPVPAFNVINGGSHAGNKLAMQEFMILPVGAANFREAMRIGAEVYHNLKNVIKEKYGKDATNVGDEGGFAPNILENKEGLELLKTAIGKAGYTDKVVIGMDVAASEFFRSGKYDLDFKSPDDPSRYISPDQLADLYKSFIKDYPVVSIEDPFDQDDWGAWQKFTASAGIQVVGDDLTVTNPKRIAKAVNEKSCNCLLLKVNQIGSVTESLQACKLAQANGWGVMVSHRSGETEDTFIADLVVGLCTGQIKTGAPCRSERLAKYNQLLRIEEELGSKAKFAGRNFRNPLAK
UniProt O76071: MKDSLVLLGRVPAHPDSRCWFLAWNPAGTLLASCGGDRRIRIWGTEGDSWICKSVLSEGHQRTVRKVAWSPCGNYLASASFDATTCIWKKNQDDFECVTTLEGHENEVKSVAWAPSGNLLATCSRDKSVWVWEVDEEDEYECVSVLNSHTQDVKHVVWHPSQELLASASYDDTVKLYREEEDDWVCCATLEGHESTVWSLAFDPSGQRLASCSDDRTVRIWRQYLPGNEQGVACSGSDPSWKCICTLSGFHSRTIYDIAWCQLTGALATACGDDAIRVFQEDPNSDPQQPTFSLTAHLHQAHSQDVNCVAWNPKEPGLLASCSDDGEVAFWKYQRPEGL
UniProt O75367, whole entry: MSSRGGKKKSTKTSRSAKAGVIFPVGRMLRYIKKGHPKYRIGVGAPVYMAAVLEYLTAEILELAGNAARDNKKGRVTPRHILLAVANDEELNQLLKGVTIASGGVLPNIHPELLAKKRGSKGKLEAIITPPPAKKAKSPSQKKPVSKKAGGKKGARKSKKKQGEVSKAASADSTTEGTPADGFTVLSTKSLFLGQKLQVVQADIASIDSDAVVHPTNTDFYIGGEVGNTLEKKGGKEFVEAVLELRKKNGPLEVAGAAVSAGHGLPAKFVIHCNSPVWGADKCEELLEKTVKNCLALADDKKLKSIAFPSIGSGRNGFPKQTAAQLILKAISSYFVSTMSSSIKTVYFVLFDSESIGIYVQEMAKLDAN
UniProt O95831, whole entry: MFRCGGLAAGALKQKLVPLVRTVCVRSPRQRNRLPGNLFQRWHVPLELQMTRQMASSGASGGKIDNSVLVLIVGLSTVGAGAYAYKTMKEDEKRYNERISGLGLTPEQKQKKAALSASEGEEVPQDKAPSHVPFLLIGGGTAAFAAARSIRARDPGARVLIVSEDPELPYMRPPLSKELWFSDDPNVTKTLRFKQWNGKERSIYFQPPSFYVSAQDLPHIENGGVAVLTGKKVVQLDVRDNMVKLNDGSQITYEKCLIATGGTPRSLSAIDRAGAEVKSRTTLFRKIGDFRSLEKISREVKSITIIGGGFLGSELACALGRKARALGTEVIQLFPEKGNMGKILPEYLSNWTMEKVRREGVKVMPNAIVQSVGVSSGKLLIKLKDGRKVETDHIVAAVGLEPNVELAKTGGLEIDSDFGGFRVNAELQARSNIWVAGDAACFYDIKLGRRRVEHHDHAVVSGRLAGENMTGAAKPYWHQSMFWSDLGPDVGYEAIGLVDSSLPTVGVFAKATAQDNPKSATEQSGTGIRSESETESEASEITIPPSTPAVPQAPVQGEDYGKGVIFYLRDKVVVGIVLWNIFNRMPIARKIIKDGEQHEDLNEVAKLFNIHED
UniProt O95363: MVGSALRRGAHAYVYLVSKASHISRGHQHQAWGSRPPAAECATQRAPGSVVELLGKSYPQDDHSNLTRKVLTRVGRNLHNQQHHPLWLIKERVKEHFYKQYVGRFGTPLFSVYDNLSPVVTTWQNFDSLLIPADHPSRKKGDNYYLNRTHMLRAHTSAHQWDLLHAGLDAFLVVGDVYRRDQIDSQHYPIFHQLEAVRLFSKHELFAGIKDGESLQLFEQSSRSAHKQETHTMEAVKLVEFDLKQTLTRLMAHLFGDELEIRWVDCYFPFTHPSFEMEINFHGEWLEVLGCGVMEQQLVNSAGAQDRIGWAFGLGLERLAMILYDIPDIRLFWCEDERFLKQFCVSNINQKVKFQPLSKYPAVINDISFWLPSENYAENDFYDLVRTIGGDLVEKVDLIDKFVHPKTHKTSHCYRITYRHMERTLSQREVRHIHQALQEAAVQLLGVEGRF
UniProt O95396: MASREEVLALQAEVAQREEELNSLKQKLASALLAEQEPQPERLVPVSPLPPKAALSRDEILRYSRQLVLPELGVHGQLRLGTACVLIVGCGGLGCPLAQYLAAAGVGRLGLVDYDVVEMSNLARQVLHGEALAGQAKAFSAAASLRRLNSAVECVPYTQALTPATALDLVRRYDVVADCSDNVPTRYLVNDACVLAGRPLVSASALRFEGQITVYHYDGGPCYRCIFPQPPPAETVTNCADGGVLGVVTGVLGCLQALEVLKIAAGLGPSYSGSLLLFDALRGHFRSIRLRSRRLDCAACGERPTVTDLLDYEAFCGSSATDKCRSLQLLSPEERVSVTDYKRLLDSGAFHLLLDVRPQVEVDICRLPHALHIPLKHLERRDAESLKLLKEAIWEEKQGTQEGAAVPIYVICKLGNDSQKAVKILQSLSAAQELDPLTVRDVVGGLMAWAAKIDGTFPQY
UniProt O75175, whole entry: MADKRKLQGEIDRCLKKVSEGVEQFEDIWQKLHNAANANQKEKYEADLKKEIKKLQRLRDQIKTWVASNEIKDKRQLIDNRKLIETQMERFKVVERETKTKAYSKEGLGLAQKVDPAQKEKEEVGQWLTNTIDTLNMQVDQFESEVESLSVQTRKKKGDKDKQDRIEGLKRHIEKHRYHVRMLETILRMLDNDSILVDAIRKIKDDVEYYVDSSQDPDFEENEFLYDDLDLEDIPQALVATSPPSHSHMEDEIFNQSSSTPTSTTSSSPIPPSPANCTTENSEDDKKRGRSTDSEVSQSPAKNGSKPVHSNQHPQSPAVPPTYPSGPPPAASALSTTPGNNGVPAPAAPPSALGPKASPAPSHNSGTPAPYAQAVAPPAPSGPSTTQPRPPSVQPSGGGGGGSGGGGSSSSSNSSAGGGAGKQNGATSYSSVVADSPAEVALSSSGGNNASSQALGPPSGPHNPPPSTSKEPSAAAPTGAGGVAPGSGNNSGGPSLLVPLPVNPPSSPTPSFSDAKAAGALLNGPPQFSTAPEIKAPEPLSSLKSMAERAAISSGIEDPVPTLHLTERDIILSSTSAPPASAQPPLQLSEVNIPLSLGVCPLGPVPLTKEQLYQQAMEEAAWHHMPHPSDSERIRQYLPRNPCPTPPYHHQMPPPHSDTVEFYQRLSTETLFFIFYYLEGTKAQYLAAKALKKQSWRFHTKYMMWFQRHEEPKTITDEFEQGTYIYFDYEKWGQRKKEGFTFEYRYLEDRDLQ
UniProt O76094: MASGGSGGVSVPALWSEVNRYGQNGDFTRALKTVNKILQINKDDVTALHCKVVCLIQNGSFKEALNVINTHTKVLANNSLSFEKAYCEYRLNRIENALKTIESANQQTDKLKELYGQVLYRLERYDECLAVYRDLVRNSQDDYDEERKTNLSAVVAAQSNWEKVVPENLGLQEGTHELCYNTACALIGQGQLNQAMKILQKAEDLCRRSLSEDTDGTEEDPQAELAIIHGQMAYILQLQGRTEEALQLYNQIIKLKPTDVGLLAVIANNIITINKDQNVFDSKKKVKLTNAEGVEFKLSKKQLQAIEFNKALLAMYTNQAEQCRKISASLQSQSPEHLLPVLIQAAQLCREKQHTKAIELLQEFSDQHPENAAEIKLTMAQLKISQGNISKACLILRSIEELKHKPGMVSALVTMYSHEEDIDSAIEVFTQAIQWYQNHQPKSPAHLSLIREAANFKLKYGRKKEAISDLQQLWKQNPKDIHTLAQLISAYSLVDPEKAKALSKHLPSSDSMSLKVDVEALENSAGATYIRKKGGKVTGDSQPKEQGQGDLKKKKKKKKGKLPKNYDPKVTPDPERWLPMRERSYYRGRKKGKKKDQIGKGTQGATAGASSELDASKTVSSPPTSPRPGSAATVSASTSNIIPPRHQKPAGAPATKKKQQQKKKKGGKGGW
UniProt O75792: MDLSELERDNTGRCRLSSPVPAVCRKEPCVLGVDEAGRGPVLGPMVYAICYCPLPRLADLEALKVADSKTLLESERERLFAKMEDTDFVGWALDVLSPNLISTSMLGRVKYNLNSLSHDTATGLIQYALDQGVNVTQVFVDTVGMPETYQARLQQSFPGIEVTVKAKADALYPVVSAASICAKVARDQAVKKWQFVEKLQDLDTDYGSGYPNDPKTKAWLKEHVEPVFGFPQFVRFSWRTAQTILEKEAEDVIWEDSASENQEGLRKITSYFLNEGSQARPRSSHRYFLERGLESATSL
UniProt P02786, whole entry, looked up: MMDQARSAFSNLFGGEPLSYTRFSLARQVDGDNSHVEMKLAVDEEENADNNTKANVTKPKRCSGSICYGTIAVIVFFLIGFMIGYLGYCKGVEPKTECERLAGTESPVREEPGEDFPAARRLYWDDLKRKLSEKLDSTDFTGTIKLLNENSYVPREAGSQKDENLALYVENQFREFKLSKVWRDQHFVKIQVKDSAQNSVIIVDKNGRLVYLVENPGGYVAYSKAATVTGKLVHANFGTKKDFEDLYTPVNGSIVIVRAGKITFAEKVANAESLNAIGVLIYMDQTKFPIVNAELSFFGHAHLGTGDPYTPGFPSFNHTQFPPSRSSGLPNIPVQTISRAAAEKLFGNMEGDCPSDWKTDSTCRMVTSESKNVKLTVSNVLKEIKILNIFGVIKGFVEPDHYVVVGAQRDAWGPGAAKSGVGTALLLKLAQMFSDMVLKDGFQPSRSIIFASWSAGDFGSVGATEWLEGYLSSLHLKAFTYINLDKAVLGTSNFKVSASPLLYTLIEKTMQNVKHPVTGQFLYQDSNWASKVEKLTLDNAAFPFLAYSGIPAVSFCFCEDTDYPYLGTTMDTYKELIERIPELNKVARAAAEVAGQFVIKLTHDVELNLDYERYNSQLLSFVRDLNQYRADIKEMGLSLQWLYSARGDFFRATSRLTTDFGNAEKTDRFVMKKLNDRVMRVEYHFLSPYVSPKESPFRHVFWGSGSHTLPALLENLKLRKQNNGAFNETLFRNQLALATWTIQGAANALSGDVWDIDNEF
UniProt O95251, whole entry: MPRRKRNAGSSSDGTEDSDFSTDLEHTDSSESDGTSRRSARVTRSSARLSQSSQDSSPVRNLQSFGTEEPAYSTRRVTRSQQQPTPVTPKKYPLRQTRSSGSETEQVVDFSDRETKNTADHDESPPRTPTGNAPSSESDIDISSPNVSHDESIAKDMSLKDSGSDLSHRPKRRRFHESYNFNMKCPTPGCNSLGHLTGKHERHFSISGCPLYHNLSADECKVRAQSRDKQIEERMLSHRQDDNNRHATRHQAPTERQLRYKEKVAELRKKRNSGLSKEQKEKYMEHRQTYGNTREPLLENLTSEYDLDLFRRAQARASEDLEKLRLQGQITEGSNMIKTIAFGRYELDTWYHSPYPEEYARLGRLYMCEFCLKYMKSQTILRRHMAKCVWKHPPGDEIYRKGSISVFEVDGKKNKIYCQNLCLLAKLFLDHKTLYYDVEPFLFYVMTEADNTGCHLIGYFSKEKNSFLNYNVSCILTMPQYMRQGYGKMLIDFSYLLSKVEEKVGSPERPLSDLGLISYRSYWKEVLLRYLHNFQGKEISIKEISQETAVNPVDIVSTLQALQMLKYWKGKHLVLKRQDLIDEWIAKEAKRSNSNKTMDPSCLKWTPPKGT
UniProt O75787, whole entry: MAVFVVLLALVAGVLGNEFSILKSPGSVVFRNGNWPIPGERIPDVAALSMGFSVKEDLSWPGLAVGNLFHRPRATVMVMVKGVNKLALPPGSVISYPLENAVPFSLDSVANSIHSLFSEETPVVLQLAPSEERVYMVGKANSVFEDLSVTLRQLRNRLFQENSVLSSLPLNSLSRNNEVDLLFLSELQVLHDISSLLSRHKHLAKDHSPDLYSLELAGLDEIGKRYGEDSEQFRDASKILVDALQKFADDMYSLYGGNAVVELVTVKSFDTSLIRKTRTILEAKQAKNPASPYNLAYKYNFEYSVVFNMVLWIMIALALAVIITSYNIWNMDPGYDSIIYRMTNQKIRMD
UniProt P01737: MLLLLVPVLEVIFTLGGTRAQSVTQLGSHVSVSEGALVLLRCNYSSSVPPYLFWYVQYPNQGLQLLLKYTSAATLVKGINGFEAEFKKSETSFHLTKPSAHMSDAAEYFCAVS
UniProt P06132: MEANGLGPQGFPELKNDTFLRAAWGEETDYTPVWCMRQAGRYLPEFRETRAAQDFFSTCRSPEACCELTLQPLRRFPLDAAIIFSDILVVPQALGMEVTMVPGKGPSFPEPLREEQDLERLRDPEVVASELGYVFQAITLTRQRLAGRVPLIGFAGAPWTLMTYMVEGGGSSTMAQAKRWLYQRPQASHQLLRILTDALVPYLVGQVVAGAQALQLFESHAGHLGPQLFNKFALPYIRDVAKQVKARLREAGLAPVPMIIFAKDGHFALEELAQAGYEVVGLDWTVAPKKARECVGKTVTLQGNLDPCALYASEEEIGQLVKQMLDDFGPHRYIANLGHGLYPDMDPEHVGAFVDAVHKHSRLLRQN

Compound: Nc1nc2c(ncn2[C@@H]2O[C@H](COP(=O)(O)OP(=O)(O)OP(=O)(O)O)[C@@H](O)[C@H]2O)c(=O)[nH]1 [guanosine triphosphate]
Assay: NP40-soluble protein abundance relative to vehicle (solubility fold change) (ratio); higher = more soluble protein in presence of GTP
Summary of the method: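 Crude Jurkat lysate, prepared by Dounce homogenisation, was exposed to eight concentrations from 0.1 to 10 mM for 10 min at room temperature and then 3 min at 37 °C. Solubilisation used 0.8% NP40 with benzonase for 60 min at 4 °C, followed by ultracentrifugation and TMT labelling of the supernatant for LC-MS/MS. After vsn normalisation of intensities, each value is the fold change against the detergent-processed vehicle within each replicate, across three independent experiments.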

Target	NP40-soluble protein abundance (concentration: 0.1mM)	NP40-soluble protein abundance (concentration: 0.5mM)	NP40-soluble protein abundance (concentration: 1mM)	NP40-soluble protein abundance (concentration: 2mM)	NP40-soluble protein abundance (concentration: 4mM)	NP40-soluble protein abundance (concentration: 6mM)	NP40-soluble protein abundance (concentration: 8mM)	NP40-soluble protein abundance (concentration: 10mM)
IPO7 (UniProt O95373)	1.01 ± 0.073	1.01 ± 0.031	0.922 ± 0.047	0.936 ± 0.056	0.946 ± 0.072	0.909 ± 0.039	0.919 ± 0.043	0.923 ± 0.021
UniProt O95758-2|O95758-6|O95758 and related entries	1.02 ± 0.074	0.974 ± 0.052	1.02 ± 0.064	1.05 ± 0.11	0.994 ± 0.088	0.972 ± 0.05	0.959 ± 0.058	0.951 ± 0.038
UniProt P00387 and related entries	1.11 ± 0.13	1.1 ± 0.14	0.945 ± 0.11	0.947 ± 0.15	0.938 ± 0.14	0.925 ± 0.14	0.882 ± 0.1	0.853 ± 0.14
UniProt P06733 and related entries	0.951 ± 0.031	0.961 ± 0.036	0.94 ± 0.04	0.894 ± 0.057	0.887 ± 0.053	0.888 ± 0.058	0.887 ± 0.047	0.875 ± 0.061
CIAO1 (UniProt O76071)	1.2 ± 0.18	1.15 ± 0.18	1.08 ± 0.096	1.11 ± 0.18	1.04 ± 0.18	1.03 ± 0.16	1.02 ± 0.07	1.05 ± 0.17
UniProt O75367 and related entries	0.946 ± 0.055	0.914 ± 0.042	0.969 ± 0.019	0.989 ± 0.057	1.15 ± 0.055	1.26 ± 0.078	1.43 ± 0.11	1.7 ± 0.082
UniProt O95831 and related entries	0.9864 ± 0.0082	1.01 ± 0.021	0.937 ± 0.014	0.949 ± 0.016	0.93 ± 0.02	0.926 ± 0.016	0.894 ± 0.036	0.882 ± 0.05
UniProt O75554 and related entries	1.01 ± 0.045	1.07 ± 0.1	1.08 ± 0.083	1.05 ± 0.12	1.04 ± 0.059	1.09 ± 0.12	1.12 ± 0.072	1.06 ± 0.034
UniProt O96005 and related entries	1.05 ± 0.12	0.982 ± 0.062	1.01 ± 0.078	0.969 ± 0.044	0.949 ± 0.036	0.951 ± 0.029	0.947 ± 0.029	0.899 ± 0.017
ALDOA (UniProt P04075)	0.964 ± 0.034	0.971 ± 0.035	0.964 ± 0.046	0.918 ± 0.043	0.911 ± 0.05	0.914 ± 0.03	0.93 ± 0.054	0.911 ± 0.059
UniProt O75592 and related entries	1.09 ± 0.0058	1.19 ± 0.16	1.24 ± 0.062	1.24 ± 0.16	1.47 ± 0.52	1.17 ± 0.38	1.35 ± 0.45	1.34 ± 0.38
ACSL3 (UniProt O95573)	1.05 ± 0.016	1.05 ± 0.049	0.942 ± 0.013	0.949 ± 0.037	0.924 ± 0.029	0.893 ± 0.035	0.914 ± 0.018	0.853 ± 0.021
TOX (UniProt O94900)	0.978 ± 0.065	0.931 ± 0.042	1.01 ± 0.059	0.944 ± 0.021	0.934 ± 0.1	0.933 ± 0.069	0.984 ± 0.013	0.999 ± 0.047
FARS2 (UniProt O95363)	0.952 ± 0.067	0.937 ± 0.11	0.931 ± 0.1	0.918 ± 0.066	0.951 ± 0.059	0.905 ± 0.049	0.913 ± 0.12	0.884 ± 0.06
MOCS3 (UniProt O95396)	1.05 ± 0.069	1.05 ± 0.1	1.07 ± 0.094	1.07 ± 0.085	1.11 ± 0.11	1.02 ± 0.074	1.03 ± 0.062	1.03 ± 0.089
UniProt O75175 and related entries	1.01 ± 0.016	1.02 ± 0.046	1.09 ± 0.028	1.18 ± 0.11	1.28 ± 0.12	1.34 ± 0.12	1.4 ± 0.13	1.56 ± 0.27
SRP72 (UniProt O76094)	0.958 ± 0.045	0.965 ± 0.029	0.98 ± 0.052	0.988 ± 0.035	1.03 ± 0.031	1.04 ± 0.045	1.05 ± 0.053	1.05 ± 0.064
UniProt O95684-2|O95684	0.849 ± 0.048	0.862 ± 0.053	0.935 ± 0.069	0.903 ± 0.081	0.853 ± 0.086	0.859 ± 0.1	0.849 ± 0.058	0.914 ± 0.09
P0619_C027|P11177 and related entries (UniProt P11177)	1.09 ± 0.053	1.11 ± 0.13	1.14 ± 0.18	1.23 ± 0.21	1.29 ± 0.26	1.27 ± 0.27	1.27 ± 0.27	1.19 ± 0.26
RNASEH2A (UniProt O75792)	0.933 ± 0.04	0.951 ± 0.039	0.907 ± 0.051	0.878 ± 0.013	0.852 ± 0.024	0.884 ± 0.055	0.863 ± 0.047	0.845 ± 0.025
UTP20 (UniProt O75691)	1.1 ± 0.12	1.13 ± 0.12	1.15 ± 0.19	1.23 ± 0.18	1.26 ± 0.16	1.27 ± 0.21	1.34 ± 0.18	1.29 ± 0.29
TK1 (UniProt P04183)	1 ± 0.031	0.989 ± 0.011	0.998 ± 0.07	1.03 ± 0.022	0.994 ± 0.035	0.985 ± 0.014	0.974 ± 0.045	0.966 ± 0.036
TFRC (UniProt P02786)	0.964 ± 0.047	0.943 ± 0.045	0.941 ± 0.051	0.893 ± 0.041	0.908 ± 0.032	0.898 ± 0.039	0.899 ± 0.041	0.861 ± 0.043
UniProt O95251 and related entries	1.02 ± 0.073	1.02 ± 0.092	1.13 ± 0.078	1.01 ± 0.088	1.01 ± 0.11	1.08 ± 0.12	1.06 ± 0.18	1.09 ± 0.18
UniProt O95563 and related entries	1.07 ± 0.017	1.1 ± 0.065	0.973 ± 0.03	0.922 ± 0.032	0.946 ± 0.053	0.902 ± 0.022	0.91 ± 0.16	0.837 ± 0.12
UniProt O75787 and related entries	1.05 ± 0.028	1.06 ± 0.038	0.988 ± 0.029	1.06 ± 0.054	1.05 ± 0.033	0.974 ± 0.038	1.02 ± 0.036	1.02 ± 0.014
UniProt P01737	0.932 ± 0.031	0.933 ± 0.0095	0.947 ± 0.026	0.946 ± 0.062	0.921 ± 0.08	0.936 ± 0.053	0.939 ± 0.031	0.943 ± 0.074
UROD (UniProt P06132)	1.04 ± 0.023	0.98 ± 0.035	0.998 ± 0.042	0.946 ± 0.033	0.98 ± 0.032	0.937 ± 0.029	0.934 ± 0.047	0.92 ± 0.018
FAM20B (UniProt O75063)	1.16 ± 0.087	1.15 ± 0.052	1.01 ± 0.011	1.07 ± 0.064	0.981 ± 0.044	1.02 ± 0.014	0.978 ± 0.075	0.92 ± 0.0029
RPN2 (UniProt P04844)	0.9917 ± 0.0051	0.996 ± 0.044	0.946 ± 0.019	0.962 ± 0.043	0.963 ± 0.053	0.944 ± 0.034	0.917 ± 0.0098	0.905 ± 0.024

Shown field by field: entries from further up
TOX (UniProt O94900)
  NP40-soluble protein abundance (concentration: 0.1mM): 0.978 ± 0.065
  NP40-soluble protein abundance (concentration: 0.5mM): 0.931 ± 0.042
  NP40-soluble protein abundance (concentration: 1mM): 1.01 ± 0.059
  NP40-soluble protein abundance (concentration: 2mM): 0.944 ± 0.021
  NP40-soluble protein abundance (concentration: 4mM): 0.934 ± 0.1
  NP40-soluble protein abundance (concentration: 6mM): 0.933 ± 0.069
  NP40-soluble protein abundance (concentration: 8mM): 0.984 ± 0.013
  NP40-soluble protein abundance (concentration: 10mM): 0.999 ± 0.047
FARS2 (UniProt O95363)
  NP40-soluble protein abundance (concentration: 0.1mM): 0.952 ± 0.067
  NP40-soluble protein abundance (concentration: 0.5mM): 0.937 ± 0.11
  NP40-soluble protein abundance (concentration: 1mM): 0.931 ± 0.1
  NP40-soluble protein abundance (concentration: 2mM): 0.918 ± 0.066
  NP40-soluble protein abundance (concentration: 4mM): 0.951 ± 0.059
  NP40-soluble protein abundance (concentration: 6mM): 0.905 ± 0.049
  NP40-soluble protein abundance (concentration: 8mM): 0.913 ± 0.12
  NP40-soluble protein abundance (concentration: 10mM): 0.884 ± 0.06
